{
  "source": "paper PMC3128601",
  "biological_target": "T1, SGIP1 (endogenous, mouse cerebellum) (mouse (endogenous in cerebellum)) (UniProt Q8VD37)",
  "T1 sequence": "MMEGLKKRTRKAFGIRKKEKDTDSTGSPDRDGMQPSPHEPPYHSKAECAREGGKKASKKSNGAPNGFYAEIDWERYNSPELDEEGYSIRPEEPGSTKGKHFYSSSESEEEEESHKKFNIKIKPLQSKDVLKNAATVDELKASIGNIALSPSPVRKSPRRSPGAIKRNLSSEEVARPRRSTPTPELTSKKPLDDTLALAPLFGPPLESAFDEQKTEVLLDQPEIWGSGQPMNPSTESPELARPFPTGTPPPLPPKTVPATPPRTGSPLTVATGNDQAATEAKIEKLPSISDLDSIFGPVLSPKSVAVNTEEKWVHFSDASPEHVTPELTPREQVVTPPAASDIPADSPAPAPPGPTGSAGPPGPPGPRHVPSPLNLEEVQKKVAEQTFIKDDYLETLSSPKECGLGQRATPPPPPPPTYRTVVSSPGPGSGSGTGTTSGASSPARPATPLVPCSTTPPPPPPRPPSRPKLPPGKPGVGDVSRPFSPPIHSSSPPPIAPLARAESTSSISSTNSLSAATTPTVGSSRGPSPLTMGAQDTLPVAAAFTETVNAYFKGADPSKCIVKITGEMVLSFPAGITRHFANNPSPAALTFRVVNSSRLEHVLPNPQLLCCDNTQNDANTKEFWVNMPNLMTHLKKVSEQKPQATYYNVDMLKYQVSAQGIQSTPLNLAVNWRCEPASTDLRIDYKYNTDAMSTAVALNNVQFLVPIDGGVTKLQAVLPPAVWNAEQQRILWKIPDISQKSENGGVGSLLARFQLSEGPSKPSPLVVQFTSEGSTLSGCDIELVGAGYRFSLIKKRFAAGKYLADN",
  "assay": "co-IP; wild-type mouse cerebellum homogenate in RIPA buffer; immunoprecipitation with anti-SGIP1 antibodies (anti-His-tag antibodies as negative control), Western blot with anti-calnexin",
  "note": "These are yes or no findings as the source states them, for the method shown. Binding seen in cells or lysates may run through a third protein. Some binding calls cover weakened binding; strength is not graded here.",
  "data": [
    {"binder": "calnexin (endogenous) (protein, UniProt P35564 21-591) HDGHDDDAIDIEDDLDDVIEEVEDSKSKSDASTPPSPKVTYKAPVPTGEVYFADSFDRGSLSGWILSKAKKDDTDDEIAKYDGKWEVDEMKETKLPGDKGLVLMSRAKHHAISAKLNKPFLFDTKPLIVQYEVNFQNGIECGGAYVKLLSKTAELSLDQFHDKTPYTIMFGPDKCGEDYKLHFIFRHKNPKTGVYEEKHAKRPDADLKTYFTDKKTHLYTLILNPDNSFEILVDQSVVNSGNLLNDMTPPVNPSREIEDPEDRKPEDWDERPKIADPDAVKPDDWDEDAPSKIPDEEATKPEGWLDDEPEYIPDPDAEKPEDWDEDMDGEWEAPQIANPKCESAPGCGVWQRPMIDNPNYKGKWKPPMIDNPNYQGIWKPRKIPNPDFFEDLEPFKMTPFSAIGLELWSMTSDIFFDNFIISGDRRVVDDWANDGWGLKKAADGAAEPGVVLQMLEAAEERPWLWVVYILTVALPVFLVILFCCSGKKQSNAMEYKKTDAPQPDVKDEEGKEEEKNKRDEEEEEEKLEEKQKSDAEEDGVTGSQDEEDSKPKAEEDEILNRSPRNRKPRRE", "values": [
      {"measurement": "binding", "result": "binds"}
    ]}
  ]
}
